From paper PMC11982326 come the findings set out here.

The target of the test is T1, Flag-tagged eIF5B truncation with the tr-type G domain (UniProt O60841).
T1 sequence: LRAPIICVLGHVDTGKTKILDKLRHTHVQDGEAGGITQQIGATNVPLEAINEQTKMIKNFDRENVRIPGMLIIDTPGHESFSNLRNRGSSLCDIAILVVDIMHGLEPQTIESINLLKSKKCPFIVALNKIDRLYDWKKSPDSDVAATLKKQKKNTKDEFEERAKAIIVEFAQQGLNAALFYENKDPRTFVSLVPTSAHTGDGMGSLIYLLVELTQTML
The experiment in a line: co-IP; T24 cells transfected with Flag-tagged eIF5B truncations, immunoprecipitation with anti-Flag, immunoblot with anti-Flag or anti-YTHDF1. On the technique in general: A western blot detects proteins with antibodies after separation by electrophoresis.

No constants are given. Whether binding was seen depends on the method and setting. In cells and extracts the contact can be indirect. Some results given as binding are weak or reduced against the parent protein; the word gives no strength. Tags and fused reporters may be left off the sequences shown.

B1: YTHDF1 (YTH domain family protein 1) of T24 cells (protein, UniProt Q9BYJ9 1-559)
chain: MSATSVDTQRTKGQDNKVQNGSLHQKDTVHDNDFEPYLTGQSNQSNSYPSMSDPYLSSYYPPSIGFPYSLNEAPWSTAGDPPIPYLTTYGQLSNGDHHFMHDAVFGQPGGLGNNIYQHRFNFFPENPAFSAWGTSGSQGQQTQSSAYGSSYTYPPSSLGGTVVDGQPGFHSDTLSKAPGMNSLEQGMVGLKIGDVSSSAVKTVGSVVSSVALTGVLSGNGGTNVNMPVSKPTSWAAIASKPAKPQPKMKTKSGPVMGGGLPPPPIKHNMDIGTWDNKGPVPKAPVPQQAPSPQAAPQPQQVAQPLPAQPPALAQPQYQSPQQPPQTRWVAPRNRNAAFGQSGGAGSDSNSPGNVQPNSAPSVESHPVLEKLKAAHSYNPKEFEWNLKSGRVFIIKSYSEDDIHRSIKYSIWCSTEHGNKRLDSAFRCMSSKGPVYLLFSVNGSGHFCGVAEMKSPVDYGTSAGVWSQDKWKGKFDVQWIFVKDVPNNQLRHIRLENNDNKPVTNSRDTQEVPLEKAKQVLKIISSYKHTTSIFDDFAHYEKRQEEEEVVRKERQSRNKQ
Regarding B1, the binding result is “binds”.
